From PubChem BioAssay AID1347426 (Functional Genomics Laboratory (NCATS/FGL), 2020)
Hit rate of the full screen: of about 31,000 sequences, about 1,400 (4.5%) were called active.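 How the source made its calls: active means median seed-adjusted z-score above 1 or below -1; inactive means the rest.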 This is one part of the list.

Experiment: Novel Modifiers of Survival Motor Neuron (SMN) Protein: Gene Identification via Genome-wide siRNA Screen;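 further: luminescence tracks full-length SMN protein made from the SMN2 reporter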
Conditions: HEK293T SMN2-luciferase reporter, siRNA knockdown, 72 h; actives lie on both sides
Procedure, shortened: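 Genome-wide siRNA screen (10418 genes, 3 siRNAs each, 1 pmol per well) by reverse transfection in HEK293T cells stably carrying an SMN2-luciferase reporter; luminescence after 72 hours, normalized to negative-control siRNA, log10-transformed, MAD-scored.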

Sequence | median seed-adjusted z-score
GGCUCAAGUCUCAAACAGATT against RAB11FIP4 | inactive: 0.249
CUACACCUGUUUUGACCAATT against CDC14A | inactive: 0.117
GCGUAAAGGUUGUACAAGATT against NPHS2 | inactive: -0.857
CGGUUGAAGUGUAGGGAGATT against TCEA1 | inactive: 0
GAUAGAAGCAUGGAAUUGATT against MRS2 | active: 1.38
GUUUUAUCAGAGGCCCUAATT against CDS2 | inactive: -0.811
CGACCUACCCACUACAAUATT against MAN2C1 | inactive: -0.489
GGUACGACAUCUUCCAGUATT against GRM6 | inactive: -0.0544
GCAGAGUUUCGUACCAGAATT against KPNA5 | inactive: -0.174
GAGUUAGGGAAAAAGCGUATT against ANK3 | inactive: 0.0252
UGAGAUCGCUGUCAUGUUATT against PSMD10 | inactive: 0.265
GGAGCGACACGCUAAUUCATT against SSH2 | inactive: 0.357
CAAUUGACCAGAUUAACAATT against GRM8 | inactive: 0.129
CCAGCCCUGUGCUCUCUUATT against FBXL6 | inactive: -0.182
GGCCCAGAAUGAUACUACATT against MAK10 | inactive: 0.124
UCCUUGUGCUGGAUCUACATT against PCDHA9 | inactive: -0.295
CCACGAUAUUGUAAACAGATT against CPSF3 | inactive: -0.918
GGUGCGGAGAGAUGAGAUATT against PPM1M | inactive: 0
GCGACUCAAUGGACGGAGATT against ZNF282 | inactive: 0.274
GGAUGUCAUCGCUCAGUUUTT against SLC10A5 | inactive: 0.539
CCGCUUUUGGAGUCAGUAATT against POLQ | inactive: 0.203
GGGACAUCAAGGGAGCUAATT against MAP4K1 | inactive: 0
CUGGAGAAGUCAUUGCAUUTT against RIN1 | inactive: -0.0694
CUGUCAUUGGUUUCCCUGATT against ZNF574 | inactive: -0.528
CGUUACUAAUACAAACAAATT against NACC2 | inactive: 0.144
CCAGAACUCCAUUCCCUGATT against HOOK2 | inactive: 0.0914
CAAGAUUCCGGAAAGCGUATT against LOXL2 | inactive: 0.177

Sequence | median seed-adjusted z-score
GCUCAAAUUGUUUUGCGUUTT against AKR1D1 | inactive: 0.211
GGGAAUUCCUAAUACAGAUTT against B3GALTL | inactive: -0.259
GAGAUUGCUCGAGACUUUATT against DDB1 | inactive: 0.231
GCCUUUAUGCAAGUUGUAATT against NME4 | inactive: -0.155
ACCUGACACUGGACGGGAATT against CD14 | inactive: 0.0723
UGCCAAGUGUCCCUAAAGATT against CITED1 | inactive: 0
CCACUGACACUGAAGAGCATT against DCLK3 | inactive: -0.0139
GUCACGUCUUGAUACCUCUTT against ACAD8 | active: 1.06
CCCAGAACACGAAAACUUUTT against HIF3A | inactive: -0.0855
AGGCAAUAAAGACCAGUCATT against NSUN5C | inactive: -0.153
CAGUAUACCGUGUUCGUGATT against PCDHA5 | inactive: 0.671
GUACAUGUUUGAUCAUUAUTT against PPP1R3D | inactive: 0
CAGUUUAUCCUACACGGUUTT against SLC2A12 | inactive: -0.373
CAAACGAGGUGAACGAUGATT against PYGO1 | active: -1.23
GAAAGAUACAGGACUAUCATT against RAB3C | inactive: 0.043
CCUACAAUGCGCUUACUAATT against RAB4A | inactive: 0.0022
CGGAUCUGGUGGAACGAGATT against OGFR | inactive: -0.565
CCAGACCUCAUGUCACAGATT against ZNF777 | inactive: 0.128
GGACUGGAGCUGAGUGCAATT against PTN | inactive: -0.174
GGUUUAUGCGGAGUGAUCATT against SP4 | inactive: -0.088
AGAUAUGAAUGGAACGUCUTT against RBMY1F | inactive: 0.2
CGACGAUAGCUGCGGAUUUTT against NARF | inactive: -0.346
CAAUGAUUCACGUCCAAAATT against FABP9 | inactive: 0.527
GCAAGGAAACUCGAAUAAATT against AGRP | inactive: 0.206
ACAGCCCACUGGUCCUCAATT against MYC | inactive: -0.543
GCUCAUGUUUGACAAUGCATT against SKIV2L | inactive: 0.209
CCGACACCUUACUACCAGATT against DNAJC16 | inactive: 0

Already shown: entries from further up.
Sequence | median seed-adjusted z-score
GAUAGAAGCAUGGAAUUGATT against MRS2 | active: 1.38
GUUUUAUCAGAGGCCCUAATT against CDS2 | inactive: -0.811
CGACCUACCCACUACAAUATT against MAN2C1 | inactive: -0.489
